Measurements reported in PubChem BioAssay AID248 (DTP/NCI, 2004).
The list is a part of this screen's results and no random one: it covers a few groups of compounds. Not every dose and run of a compound is shown. T/C gives the treated animals as a percentage of the vehicle group. Some entries give survivors of the animals treated and no T/C: the source holds a T/C of zero for them, seemingly a mark for toxic or unscored doses. Some survivor counts are full or nearly so, which does not show that the dose was tolerated: the source hardly ever lists a survival T/C far under the control, and the zero likely stands for such cases as well. Counts of survivors are from the toxicity check (mostly the fifth day) where no day follows; animals may have died later. Schedules are NCI's codes, read here as Q, the interval in days (D) or hours (H), X, the number of doses. Some doses were run more than once; the results are listed from low to high. Some complexes appear as separate parts, the way the source draws them; their charges need not add up. Where survival is the endpoint, this PubChem deposit counts one and a half times the control or more as active, and values a quarter to a half above the control carry no call in these data; other NCI protocols may use other cut-offs. Some schedules carry Z or #; the key to these is not given. Some T/C values carry the count of animals alive at the toxicity check (mostly the fifth day); without a count or a note in brackets, all were alive then.

Test system: L1210 leukemia ip in BDF1 mice, survival T/C
Test: NCI In Vivo Anticancer Drug Screen. Data for tumor model L1210 Leukemia (intraperitoneal) in B6D2F1 (BDF1) mice
Settings: T/C endpoint: mean survival time, higher T/C = longer survival
[1] = dose: 25.0 mg/kg/injection, schedule: Q01DX001 (ip), vehicle: saline
[2] = dose: 100.0 mg/kg/injection, schedule: Q04DX003 (ip), vehicle: saline
[3] = dose: 200.0 mg/kg/injection, schedule: Q04DX003 (ip), vehicle: saline
[4] = dose: 400.0 mg/kg/injection, schedule: Q04DX003 (ip), vehicle: saline

**Q.** Which results are given for `CCCC[As](=O)(O)O`?
**A.** T/C (dose: 6.3 mg/kg/injection, schedule: Q01DX001 (ip), vehicle: saline): 118 % of control; T/C (dose: 12.5 mg/kg/injection, schedule: Q01DX001 (ip), vehicle: saline): 109 % of control; T/C [1]: 113 % of control; survivor count [1]: 2 of 4; survivor count (dose: 50.0 mg/kg/injection, schedule: Q01DX001 (ip), vehicle: saline): 0 of 4; survivor count (dose: 100.0 mg/kg/injection, schedule: Q01DX001 (ip), vehicle: saline): 0 of 4 and 1 of 4; survivor count (dose: 200.0 mg/kg/injection, schedule: Q01DX001 (ip), vehicle: saline): 1 of 4; survivor count (dose: 400.0 mg/kg/injection, schedule: Q01DX001 (ip), vehicle: saline): 0 of 4

**Q.** How did the T/C (dose: 25.0 mg/kg/injection, schedule: Q01DX009 (ip), vehicle: saline with Tween-80) turn out when `CSP1(SC)=NP(Cl)(Cl)=NP(Cl)(Cl)=N1` was run?
**A.** 97 % of control

**Q.** What about the T/C (dose: 25.0 mg/kg/injection, schedule: Q04DX002 (ip), vehicle: saline with Tween-80) of the same compound?
**A.** 100 % of control

**Q.** What about the T/C (dose: 50.0 mg/kg/injection, schedule: Q01DX009 (ip), vehicle: saline with Tween-80) of the same compound?
**A.** 106 % of control

**Q.** What about the T/C (dose: 50.0 mg/kg/injection, schedule: Q04DX002 (ip), vehicle: saline with Tween-80) of the same compound?
**A.** 87 % of control

**Q.** What about the T/C (dose: 100.0 mg/kg/injection, schedule: Q01DX009 (ip), vehicle: saline with Tween-80) of the same compound?
**A.** 106 % of control

**Q.** And the T/C (dose: 100.0 mg/kg/injection, schedule: Q04DX002 (ip), vehicle: saline with Tween-80)?
**A.** 94 and 110 % of control

**Q.** And the survivor count (dose: 200.0 mg/kg/injection, schedule: Q04DX002 (ip), vehicle: saline with Tween-80)?
**A.** 3 of 3

**Q.** And the survivor count (dose: 400.0 mg/kg/injection, schedule: Q04DX002 (ip), vehicle: saline with Tween-80)?
**A.** 0 of 3

**Q.** With `NC1CCCCC1.O=P(O)(N(CCCl)CCCl)N1CCCCC1` as the compound, how does the T/C (dose: 16.0 mg/kg/injection, schedule: Q01DX Z (ip), vehicle: saline) read?
**A.** 100 % of control

**Q.** What about the T/C (dose: 32.0 mg/kg/injection, schedule: Q01DX Z (ip), vehicle: saline) of the same compound?
**A.** 92 % of control

**Q.** And the T/C (dose: 64.0 mg/kg/injection, schedule: Q01DX Z (ip), vehicle: saline)?
**A.** 109 % of control

**Q.** And the T/C (dose: 128.0 mg/kg/injection, schedule: Q01DX Z (ip), vehicle: saline)?
**A.** 118 % of control

**Q.** Which T/C (dose: 9.38 mg/kg/injection, schedule: Q01DX001 (ip), vehicle: other) does the source give for `O=[N+]([O-])Cc1ccc([N+](=O)[O-])cc1` here?
**A.** 90 % of control

**Q.** And the T/C (dose: 18.75 mg/kg/injection, schedule: Q01DX001 (ip), vehicle: other)?
**A.** 100 % of control

**Q.** And the T/C (dose: 37.5 mg/kg/injection, schedule: Q01DX001 (ip), vehicle: other)?
**A.** 95 % of control

**Q.** And the survivor count (dose: 75.0 mg/kg/injection, schedule: Q01DX001 (ip), vehicle: other)?
**A.** 1 of 6

**Q.** What about the survivor count (dose: 150.0 mg/kg/injection, schedule: Q01DX001 (ip), vehicle: other) of the same compound?
**A.** 1 of 6

**Q.** And the survivor count (dose: 300.0 mg/kg/injection, schedule: Q01DX001 (ip), vehicle: other)?
**A.** 0 of 6

**Q.** `OP(Oc1ccccc1)Oc1ccccc1.[Hg]` was tested. Which T/C [2] did it give?
**A.** 103 % of control

**Q.** And the T/C [3]?
**A.** 97 % of control

**Q.** And the T/C [4]?
**A.** 110 % of control

**Q.** Which results are given for `O=C(CCCN1CCC(n2c(=O)n(CO)c3ccccc32)CC1)c1ccc(F)cc1`?
**A.** T/C (dose: 100.0 mg/kg/injection, schedule: Q04DX003 (ip), vehicle: Klucel (hydroxypropylcellulose) (HPC)): 100 % of control; T/C (dose: 133.0 mg/kg/injection, schedule: Q04DX003 (ip), vehicle: Klucel (hydroxypropylcellulose) (HPC)): 115 % of control; T/C (dose: 200.0 mg/kg/injection, schedule: Q04DX003 (ip), vehicle: Klucel (hydroxypropylcellulose) (HPC)): 111 and 129 % of control; survivor count (dose: 300.0 mg/kg/injection, schedule: Q04DX003 (ip), vehicle: Klucel (hydroxypropylcellulose) (HPC)): 4 of 6; T/C (dose: 400.0 mg/kg/injection, schedule: Q04DX003 (ip), vehicle: Klucel (hydroxypropylcellulose) (HPC)): 106 % of control [4 of 6 alive]

**Q.** `CC(N)C(=O)O.CCCCO[P+](=O)O` was tested. Which T/C [2] did it give?
**A.** 97 % of control

**Q.** And the T/C [3]?
**A.** 95 % of control

**Q.** What about the survivor count [4] of the same compound?
**A.** 6 of 6
